According to PubChem BioAssay AID2685 (National Center for Advancing Translational Sciences (NCATS), 2010):
This is one part of the list. These are further read-outs of the screen, such as a control signal, another cell line or another target. No call is given for them. The list favours compounds with an active or inconclusive main result. Words in brackets tell the shape of the fitted curve; partial curves, single points and poor fits give uncertain potencies.

Assay: qHTS Assay for Lipid Storage Modulators in Drosophila S3 Cells;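 on cell number change: cells counted by Cell Tracker Red CMTPX staining in the red channel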
Details: BODIPY lipid droplet fluorescence, 18-24 h; for cell number change: measured here: cell count max response, cells fed with added oleic acid
Outline: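 Drosophila S3 cells loaded with oleic acid (400 uM, as added) and compounds at several concentrations; lipid droplets imaged by 488-nm laser-scanning cytometry, 500–530 nm intensity and object ratio to cell channel. Percent activity normalized to 20 uM Triacsin C.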

[1] = measured here: lipid fluorescence (Fed channel) AC50, cells fed with added oleic acid
[2] = measured here: cell number channel AC50, cells fed with added oleic acid

Row | SMILES | cell number change | AC50 [1] | AC50 [2]
1 | CCCn1nnnc1NC(=O)c1cc(Br)ccc1OC | 1.12% |  | 
2 | Cn1c(=O)[nH]c(=O)c2c1nc(N1CCOCC1)n2CC(O)COc1ccccc1 (configuration not stated) | -19.9% | 0.517 µM [rising, full curve, poor fit] | 
3 | COc1ccc(/C=N/n2c(=S)n(C)c3ccccc32)cc1OC | 63% | 4.61 µM [rising, full curve] | 6.51 µM [rising, full curve]
4 | O=C(O)C1C2CCC(CC2)C1C(=O)N1CCN(Cc2ccc(F)cc2)CC1 (configuration not stated) | 17.4% |  | 
5 | Cc1sc(NC(=O)CCl)c(C(=O)c2ccccc2)c1C | -36.7% | 20.6 µM [falling, single point] | 14.6 µM [falling, single point]
6 | CC1CC(=O)Nc2ccccc2N1S(=O)(=O)c1ccccc1 (configuration not stated) | 23.7% | 1.3 µM [falling, full curve] | 1.03 µM [falling, partial curve, poor fit]
7 | O=C(COC(=O)c1ccccc1OC(F)F)Nc1ccc(N2CCCCC2)cc1 | 25.2% | 10.3 µM [rising, partial curve, poor fit] | 
8 | CC(=O)C1=C(c2ccccc2)N(C(C)=O)n2c(C)nnc2S1 | -129% |  | 4.11 µM [falling, partial curve]
9 | CCOc1ccc(S(=O)(=O)N2CCCC(C(=O)NCc3ccncc3)C2)cc1Cl (configuration not stated) |  | 5.17 µM [falling, partial curve] | 
10 | CCCCC(=O)Nc1ccc2c(c1)nc(CCN1CCOCC1)n2C | -1.97% | 20.6 µM [rising, single point] | 
11 | Cc1cc(C)cc(N(C(=O)Cc2cccs2)C(C(=O)NC2CCCC2)c2ccc(C)o2)c1 (configuration not stated) | 85.1% |  | 29.1 µM [rising, single point]
12 | Cc1cccc(C)c1OC(=O)CN1C(=O)c2ccccc2C1=O | 111% | 0.58 µM [falling, single point] | 29.1 µM [rising, single point]
13 | Cn1c(=NCC(O)COc2ccccc2)sc2ccccc21 (configuration not stated) | -6.41% | 0.291 µM [rising, full curve, poor fit] | 
14 | CCOC(=O)C1=C(O)/C(=C/c2ccc(OCC(=O)O)c(OC)c2)SC1=Nc1ccc(OCC)cc1 | 43.6% | 2.59 µM [rising, partial curve] | 0.13 µM [rising, full curve]
15 | Cc1ccc(NC(=O)COC(=O)C2CSC3(C)CCC(=O)N23)cc1S(=O)(=O)N1CCOCC1 (configuration not stated) | 45.6% | 16.4 µM [rising, single point] | 32.6 µM [rising, partial curve, poor fit]
16 | NS(=O)(=O)c1cc(C(=O)OCC(=O)NC2CC2)ccc1Cl | -66.2% | 29.1 µM [falling, single point] | 29.1 µM [falling, single point]
17 | Cc1cc(C)c(C(=O)Nn2c(C)nc3ccccc3c2=O)cc1C | 11.7% |  | 
18 | Cc1ccc(S(=O)(=O)CC(=O)c2cc(C)c(O)c(C)c2)cc1 | 81% | 29.1 µM [rising, single point] | 29.1 µM [rising, single point]
19 | Cc1ccc(S(=O)(=O)c2c(C)cc(C)nc2N2CCCC2)cc1 | 2.6% |  | 
20 | Cc1cc(C(=O)NCC(=O)OCC(=O)NCCc2ccccc2)ccc1[N+](=O)[O-] | -27.9% |  | 

Row | SMILES | cell number change | AC50 [1] | AC50 [2]
21 | COc1ccc(C(F)(F)F)cc1N/C=C\c1nnnn1-c1ccccc1 | 27.3% | 23.1 µM [falling, single point] | 0.731 µM [rising, partial curve, poor fit]
22 | CCOC(=O)c1c(NC(=O)Cn2cc([N+](=O)[O-])cn2)sc2c1CCC2 | 4.6% |  | 0.411 µM [rising, partial curve, poor fit]
23 | O=S(=O)(Nc1ccc(N2CCOCC2)nn1)c1ccccc1 | 2.97% | 0.116 µM [falling, full curve] | 
24 | COc1ccc(C2CC3(CC(C)(C)NC(=O)N3)Oc3cc(O)ccc32)cc1 (configuration not stated) | -8.94% | 0.0184 µM [falling, full curve, poor fit] | 
25 | O=C(O)CSC1c2ccccc2C(=O)N1c1ccccc1 (configuration not stated) | -46.5% | 23.1 µM [falling, single point] | 32.6 µM [falling, single point]
26 | CN(CCc1ccccc1)C(=O)c1cc(COc2cccc(C(F)(F)F)c2)on1 | 11.2% | 20.6 µM [falling, single point] | 
27 | COc1ccc(CCC(C)NCc2ccccc2OC)cc1 (configuration not stated) | -5.8% |  | 
28 | O=C(NCCS(=O)(=O)c1ccc(Br)cc1)c1ccc(Cl)cc1Cl | 25.3% | 11.2 µM [rising, partial curve, poor fit] | 
29 | Cc1oc(-c2ccccc2)cc1C(=O)Nc1cccc(/C=C\C(=O)O)c1 | 16.9% | 0.13 µM [rising, full curve, poor fit] | 0.092 µM [rising, full curve, poor fit]
30 | CC1CC(C)CN(CCCNC(=O)CCC(=O)N2CCOc3ccccc32)C1 (configuration not stated) |  | 0.259 µM [rising, full curve] | 
31 | CC(C)CCNC(=O)C(Cc1ccccc1)NS(=O)(=O)c1ccc2c(c1)c(=O)n(C)c(=O)n2C (configuration not stated) | 5.94% |  | 
32 | CC1=CC(=O)C(C(C)=Nc2ccccc2Cl)C(=O)O1 (configuration not stated) | 5.27% | 0.058 µM [falling, full curve, poor fit] | 
33 | CNC(=S)N(CCc1c(C)[nH]c2ccc(C)cc12)Cc1cc(OC)c(OC)c(OC)c1 | 19.5% | 0.82 µM [rising, partial curve] | 
34 | COc1cccc(-n2c(Cc3cc(=O)[nH]c(=O)[nH]3)nnc2SCC(=O)NC2CCCC2)c1 | 2.28% |  | 
35 | COc1ccccc1N1CCN(C(CNS(=O)(=O)c2ccccc2)c2cccnc2)CC1 (configuration not stated) |  | 2.31 µM [rising, partial curve] | 5.8 µM [rising, single point]
36 | CCCN1c2cccc3cccc(c23)S1(=O)=O | 1.56% | 6.51 µM [falling, single point] | 
37 | COC(=O)c1ccccc1NC(=O)c1cc(C)no1 | -21.6% |  | 
38 | CCOC(=O)N1CCC(NC(=O)Cn2cc3c(n2)CCCCC3)CC1 | -31.4% | 20.6 µM [rising, single point] | 32.6 µM [falling, partial curve, poor fit]
39 | CCOCCCNc1c(CC)c(C)c(C#N)c2nc3ccccc3n12 | -15.2% | 29.1 µM [falling, single point] | 
40 | Cc1c(-c2c(C#N)c(N)nc3c2CCCCCC3)cnn1C | 57.4% |  | 16.4 µM [rising, partial curve, poor fit]

Grouped by structure: the compounds so far with an aryl methoxy group
Row | SMILES | cell number change | AC50 [1] | AC50 [2]
1 | CCCn1nnnc1NC(=O)c1cc(Br)ccc1OC | 1.12% |  | 
3 | COc1ccc(/C=N/n2c(=S)n(C)c3ccccc32)cc1OC | 63% | 4.61 µM [rising, full curve] | 6.51 µM [rising, full curve]
14 | CCOC(=O)C1=C(O)/C(=C/c2ccc(OCC(=O)O)c(OC)c2)SC1=Nc1ccc(OCC)cc1 | 43.6% | 2.59 µM [rising, partial curve] | 0.13 µM [rising, full curve]
21 | COc1ccc(C(F)(F)F)cc1N/C=C\c1nnnn1-c1ccccc1 | 27.3% | 23.1 µM [falling, single point] | 0.731 µM [rising, partial curve, poor fit]
24 | COc1ccc(C2CC3(CC(C)(C)NC(=O)N3)Oc3cc(O)ccc32)cc1 (configuration not stated) | -8.94% | 0.0184 µM [falling, full curve, poor fit] | 
27 | COc1ccc(CCC(C)NCc2ccccc2OC)cc1 (configuration not stated) | -5.8% |  | 
33 | CNC(=S)N(CCc1c(C)[nH]c2ccc(C)cc12)Cc1cc(OC)c(OC)c(OC)c1 | 19.5% | 0.82 µM [rising, partial curve] | 
34 | COc1cccc(-n2c(Cc3cc(=O)[nH]c(=O)[nH]3)nnc2SCC(=O)NC2CCCC2)c1 | 2.28% |  | 
35 | COc1ccccc1N1CCN(C(CNS(=O)(=O)c2ccccc2)c2cccnc2)CC1 (configuration not stated) |  | 2.31 µM [rising, partial curve] | 5.8 µM [rising, single point]

Complete entries, looked up by structure.
COc1ccc(C(F)(F)F)cc1N/C=C\c1nnnn1-c1ccccc1 is listed with cell number change: 27.3%; AC50 [1]: 23.1 µM [falling, single point]; AC50 [2]: 0.731 µM [rising, partial curve, poor fit]
Cc1cc(C(=O)NCC(=O)OCC(=O)NCCc2ccccc2)ccc1[N+](=O)[O-] is listed with cell number change: -27.9%

(list continues)

Row | SMILES | cell number change | AC50 [1] | AC50 [2]
41 | O=C(O)c1ccc(S(=O)(=O)NC2CCCc3ccccc32)cc1 (configuration not stated) | -7.58% |  | 
42 | O=C(N/N=C/c1ccncc1)c1cccs1 | 18.7% | 5.8 µM [rising, full curve, poor fit] | 
43 | CC(C)n1cnnc1SCC(=O)NCC(=O)Nc1ccc(F)cc1 | -7.39% | 6.51 µM [falling, single point] | 6.51 µM [falling, single point]
44 | COc1ccc(NC(=O)c2cc([N+](=O)[O-])ccc2O)cc1 | -59.8% | 6.51 µM [falling, partial curve] | 16.4 µM [falling, partial curve, poor fit]
45 | COc1ccc(/C=C2\SC(=O)N(CCNC(=O)Cc3coc4cc(C)ccc34)C2=O)cc1OC | 20.4% | 3.26 µM [rising, partial curve, poor fit] | 
46 | CN1CCc2c(C#N)c(N3CCCCC3)nc(NCc3ccccc3)c2C1 | -43.5% | 16.4 µM [falling, partial curve] | 29.1 µM [falling, single point]
47 | Fc1ccc(C2C3=C(Nc4ncnn42)c2ccccc2OC3c2ccncc2)cc1 (configuration not stated) | 36.9% | 0.82 µM [falling, partial curve] | 13 µM [rising, single point]
48 | Fc1cc(F)c2nc(Nc3nc4c(F)cccc4s3)sc2c1 | -1.59% |  | 
49 | COc1ccccc1Nc1nnc(SC(C)C(=O)NC2CC2)s1 (configuration not stated) | -12.2% |  | 
50 | CC(=O)OCCNc1cc(N2CCN(C)CC2)c2noc3c2c1C(=O)c1ccccc1-3 | -17.2% | 13 µM [falling, single point] | 
51 | CC1(C)NC(=O)N(CC(=O)O)C1=O | -3.83% | 4.11 µM [rising, single point] | 
52 | C[C@H](NC(=O)c1ccccc1Cl)C(=O)OCC(=O)NNC(=O)c1cccs1 | 19% |  | 
53 | CCOc1cc(/C=N/NC(=O)c2cccnc2)ccc1OCC(=O)N(C)C | 49.2% | 29.1 µM [rising, partial curve, poor fit] | 
54 | COc1ccccc1NC(=O)CCCc1nc(-c2ccc(OC)c(OC)c2)no1 | 26.6% |  | 
55 | CSc1ccc(S(=O)(=O)NCC(=O)OCC(=O)NCc2ccco2)cc1[N+](=O)[O-] | 10% |  | 
56 | CCOC(=O)c1ccc(-c2ccc(/C=N/NC(=O)CN(c3ccccc3Br)S(C)(=O)=O)o2)cc1 |  | 18.4 µM [falling, partial curve] | 
57 | Cc1ccc(NC(=O)Cn2cccc2C2=NC(c3ccccc3)CO2)cc1C (configuration not stated) | 29.2% | 29.1 µM [rising, single point] | 
58 | CC(=O)c1cc(CN2CCN(Cc3ccccc3)C(CCO)C2)cs1 (configuration not stated) |  | 1.84 µM [falling, partial curve, poor fit] | 
59 | Cc1ccc(C)c(Sc2ccc(S(=O)(=O)Nc3ccc(C(=O)O)cc3)cc2)c1 | -15.8% |  | 
60 | O=C(O)C1CCCCC1C(=O)NCc1cn2ccccc2n1 (configuration not stated) | -34.3% | 3.66 µM [falling, full curve] | 4.11 µM [falling, full curve]
